Laboratory results from patent publication US20130171133A1.
No constants are given. Whether binding was seen depends on the method and setting. For part of these data: In cells and extracts the contact can be indirect.

Experiments:
[1] = target: EGFR (from SK-OV-3 derived cell lysates) (UniProt P00533); test: co-IP
[2] = target: EGFR (from SK-OV-3 derived cell lysates) (UniProt P00533); test: immunoprecipitation
[3] = target: EGFR (from SK-OV-3 derived cell lysates) (UniProt P00533); test: co-IP, FIG. 2 legend
[4] = target: EGFR (from SK-OV-3 derived cell lysates) (UniProt P00533); test: FIG. 19 legend, restated
[5] = target: EGFR (from SK-OV-3 derived cell lysates) (UniProt P00533); test: restated in the text on degradation
[6] = target: EGFR (from SK-OV-3 derived cell lysates) (UniProt P00533); test: reciprocal co-IP, SK-OV-3 derived cell lysates

Measured: binding

B1: OPCML (opioid binding protein cell adhesion molecule), human, expressed in cells (stably transfected SK-OV-3 lines BKS2.1 and SKOBS-3.5) (protein)
chain: GVPVRSGDATFPKAMDNVTVRQGESATLRCTIDDRVTRVAWLNRSTILYAGNDKWSIDPRVIILVNTPTQYSIMIQNVDVYDEGPYTCSVQTDNHPKTSRVHLIVQVPPQIMNISSDITVNEGSSVTLLCLAIGRPEPTVTWRHLSVKEGQGFVSEDEYLEISDIKRDQSGEYECSALNDVAAPDVRKVKITVNYPPYISKAKNTGVSVGQKGILSCEASAVPMAEFQWFKEETRLATGLDGMRIENKGRMSTLTFFNVSEKDYGNYTCVATNKLGNTNASITLYGPGAVIDGVN
modifications: GPI anchor at N322; N-linked glycosylation
no binding: [1] | [2] | [3] | [4] | [5] | [6]
